Our source for the binding values is publication doi:10.1101/2022.01.12.476115.

The chains behind the UniProt entries cited, without tags or fusion partners. Where a name states a change or a piece, a line headed by the entry shows the natural chain unless it says otherwise.
UniProt P46527: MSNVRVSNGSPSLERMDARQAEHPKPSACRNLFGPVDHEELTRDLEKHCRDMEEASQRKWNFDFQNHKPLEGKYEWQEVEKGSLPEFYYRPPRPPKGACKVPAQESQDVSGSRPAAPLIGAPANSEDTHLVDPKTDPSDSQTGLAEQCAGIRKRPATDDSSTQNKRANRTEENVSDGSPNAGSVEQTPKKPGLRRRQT
UniProt P06493: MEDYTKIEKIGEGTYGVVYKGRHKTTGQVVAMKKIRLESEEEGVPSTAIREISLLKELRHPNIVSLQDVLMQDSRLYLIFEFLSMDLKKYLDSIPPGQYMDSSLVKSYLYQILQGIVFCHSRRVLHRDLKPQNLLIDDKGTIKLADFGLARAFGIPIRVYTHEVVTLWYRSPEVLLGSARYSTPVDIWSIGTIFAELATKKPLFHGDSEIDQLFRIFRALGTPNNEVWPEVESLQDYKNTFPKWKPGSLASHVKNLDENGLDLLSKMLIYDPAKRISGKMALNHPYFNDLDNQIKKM

For the assay, the target named is Flag-p27 FL (full-length p27 CDK inhibitor) (human) (UniProt P46527). The experiment in a line: co-IP.

These are yes or no findings as the source states them, for the method shown. Binding seen in cells or lysates may run through a third protein. Some entries that bind do so weakly or less than the wild type.

As to “Cdk1-cyclin B complex (M-phase cyclin) (from UniProt P06493 1-297; P14635 1-433)”, the binding entry is recorded as “binds”.
